Measurements as given in patent US20140315301A1.
No constants are given. Whether binding was seen depends on the method and setting. In cells and extracts the contact can be indirect. Some entries that bind do so weakly or less than the wild type.

By UniProt entry, the sequences of proteins in these tests, tags left out. Where a name states a change or a piece, a line headed by the entry shows the natural chain unless it says otherwise.
UniProt Q13547: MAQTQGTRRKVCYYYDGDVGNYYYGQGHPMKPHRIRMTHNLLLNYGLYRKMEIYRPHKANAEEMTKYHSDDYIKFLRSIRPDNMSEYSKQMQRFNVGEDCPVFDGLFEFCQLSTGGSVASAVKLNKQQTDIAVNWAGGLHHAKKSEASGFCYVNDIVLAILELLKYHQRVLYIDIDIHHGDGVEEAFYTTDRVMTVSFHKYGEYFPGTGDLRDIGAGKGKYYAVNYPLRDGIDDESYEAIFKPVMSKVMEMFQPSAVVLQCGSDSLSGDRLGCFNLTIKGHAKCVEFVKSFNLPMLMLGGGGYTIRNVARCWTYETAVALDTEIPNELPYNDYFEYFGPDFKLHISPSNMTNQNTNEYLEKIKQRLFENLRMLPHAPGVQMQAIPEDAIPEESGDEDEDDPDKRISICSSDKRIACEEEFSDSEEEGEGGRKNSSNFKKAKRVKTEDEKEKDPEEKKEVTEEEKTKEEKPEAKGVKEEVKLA
UniProt Q9Z2D8: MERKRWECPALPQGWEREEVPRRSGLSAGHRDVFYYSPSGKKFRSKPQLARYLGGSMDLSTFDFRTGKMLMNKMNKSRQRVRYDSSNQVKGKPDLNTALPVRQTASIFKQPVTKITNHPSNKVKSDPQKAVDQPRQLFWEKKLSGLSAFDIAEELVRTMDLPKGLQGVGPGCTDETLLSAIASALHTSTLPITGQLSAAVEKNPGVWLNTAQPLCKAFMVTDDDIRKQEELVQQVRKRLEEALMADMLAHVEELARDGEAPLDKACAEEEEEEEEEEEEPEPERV
UniProt Q9UBB5: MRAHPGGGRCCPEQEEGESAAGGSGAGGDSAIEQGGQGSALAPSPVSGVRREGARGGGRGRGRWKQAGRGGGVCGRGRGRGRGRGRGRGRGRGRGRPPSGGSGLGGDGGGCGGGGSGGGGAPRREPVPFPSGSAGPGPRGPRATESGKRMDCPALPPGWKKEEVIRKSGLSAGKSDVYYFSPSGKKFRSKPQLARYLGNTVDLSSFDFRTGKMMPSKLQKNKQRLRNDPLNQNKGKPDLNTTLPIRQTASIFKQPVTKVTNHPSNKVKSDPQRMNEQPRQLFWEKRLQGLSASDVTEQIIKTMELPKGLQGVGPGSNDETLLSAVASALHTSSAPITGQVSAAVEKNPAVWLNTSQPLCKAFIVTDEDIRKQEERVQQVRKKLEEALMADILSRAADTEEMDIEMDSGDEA
UniProt Q6PDQ2: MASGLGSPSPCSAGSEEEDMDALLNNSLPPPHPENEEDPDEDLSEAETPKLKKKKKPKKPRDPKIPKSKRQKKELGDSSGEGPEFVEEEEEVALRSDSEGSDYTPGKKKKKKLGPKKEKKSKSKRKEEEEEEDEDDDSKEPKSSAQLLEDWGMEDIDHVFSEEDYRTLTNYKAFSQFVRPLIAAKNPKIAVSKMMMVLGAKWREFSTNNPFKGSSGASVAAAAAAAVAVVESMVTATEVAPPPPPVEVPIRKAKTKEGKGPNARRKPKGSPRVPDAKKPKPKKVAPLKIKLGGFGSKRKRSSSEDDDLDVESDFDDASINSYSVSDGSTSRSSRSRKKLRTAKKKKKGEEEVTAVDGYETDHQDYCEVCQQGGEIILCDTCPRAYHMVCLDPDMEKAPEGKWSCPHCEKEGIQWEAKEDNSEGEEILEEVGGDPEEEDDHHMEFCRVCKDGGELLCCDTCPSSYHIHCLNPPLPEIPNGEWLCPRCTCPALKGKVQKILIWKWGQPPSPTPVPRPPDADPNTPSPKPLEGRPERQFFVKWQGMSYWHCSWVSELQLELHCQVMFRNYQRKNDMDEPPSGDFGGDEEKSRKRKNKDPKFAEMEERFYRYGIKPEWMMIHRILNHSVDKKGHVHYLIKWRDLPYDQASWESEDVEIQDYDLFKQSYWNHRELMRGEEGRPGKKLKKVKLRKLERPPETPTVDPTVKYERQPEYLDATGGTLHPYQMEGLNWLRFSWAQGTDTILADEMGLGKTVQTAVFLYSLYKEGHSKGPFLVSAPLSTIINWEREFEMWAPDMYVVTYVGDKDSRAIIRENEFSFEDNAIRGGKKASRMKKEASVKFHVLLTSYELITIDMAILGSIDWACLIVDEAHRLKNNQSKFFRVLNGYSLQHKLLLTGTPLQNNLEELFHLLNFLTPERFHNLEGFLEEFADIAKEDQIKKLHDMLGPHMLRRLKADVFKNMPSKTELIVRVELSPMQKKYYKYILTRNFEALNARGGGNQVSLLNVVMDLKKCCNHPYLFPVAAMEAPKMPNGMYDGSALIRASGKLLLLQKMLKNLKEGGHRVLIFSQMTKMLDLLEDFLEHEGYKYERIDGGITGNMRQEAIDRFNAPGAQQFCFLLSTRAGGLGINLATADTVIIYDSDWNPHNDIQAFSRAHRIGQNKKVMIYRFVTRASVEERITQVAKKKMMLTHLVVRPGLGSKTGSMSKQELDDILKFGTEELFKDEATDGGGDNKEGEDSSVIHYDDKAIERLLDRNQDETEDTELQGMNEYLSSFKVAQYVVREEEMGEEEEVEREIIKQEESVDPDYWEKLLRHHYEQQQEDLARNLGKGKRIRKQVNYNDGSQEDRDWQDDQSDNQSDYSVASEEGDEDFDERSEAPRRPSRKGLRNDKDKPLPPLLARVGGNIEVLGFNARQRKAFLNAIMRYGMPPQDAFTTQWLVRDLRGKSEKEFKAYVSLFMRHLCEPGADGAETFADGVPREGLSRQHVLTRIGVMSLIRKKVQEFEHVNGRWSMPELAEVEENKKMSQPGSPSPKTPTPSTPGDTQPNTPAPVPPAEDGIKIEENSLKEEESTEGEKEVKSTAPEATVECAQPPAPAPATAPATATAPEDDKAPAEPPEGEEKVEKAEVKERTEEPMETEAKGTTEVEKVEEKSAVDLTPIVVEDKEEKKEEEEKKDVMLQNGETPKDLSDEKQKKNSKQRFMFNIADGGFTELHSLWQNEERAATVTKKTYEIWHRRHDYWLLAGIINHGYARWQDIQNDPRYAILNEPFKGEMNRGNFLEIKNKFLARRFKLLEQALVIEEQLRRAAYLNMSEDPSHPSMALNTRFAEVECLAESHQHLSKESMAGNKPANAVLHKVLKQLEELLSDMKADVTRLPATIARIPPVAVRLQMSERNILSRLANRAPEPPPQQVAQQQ

How the values were obtained:
[1] = target: Flag-tagged HDAC1 (Homo sapiens (Human)) (UniProt Q13547); test: co-IP: anti-Flag IP from lysate of HEK293T cells co-transfected with Flag-HDAC1 and MBD2, immunoblot
[2] = target: Mbd3, endogenous, in mouse ESCs and mouse embryonic fibroblasts (mouse) (UniProt Q9Z2D8); test: co-IP of Chd4 (Mi2b) from secondary Mbd3+/+ fibroblasts 3 days after Dox induction in 2i/LIF, immunoblot

| binding [1] | binding [2] | Substance |
| --- | --- | --- |
| binds | – | MBD2, overexpressed in HEK293T cells (from UniProt Q9UBB5 1-411) |
| – | binds | Chd4 (Mi2b), the core subunit of the NuRD complex, endogenous in mouse cells (from UniProt Q6PDQ2 1-1915) (enzyme) |
